Values of other authors in patent US20050119243A1, “HIF-1 inhibitors and methods of use thereof” (priority 2003, published 2005).
For at least one compound, name, drawing or mass did not settle the structure.

Test system: HIF-1α
Conditions: renal cell carcinoma cell lines lacking VHL; cited from earlier work

COC1=C2C[C@@H](C)C[C@H](OC)[C@H](O)[C@@H](C)/C=C(\C)[C@H](OC(N)=O)[C@@H](OC)/C=C\C=C(/C)C(=O)NC(=CC1=O)C2=O [geldanamycin]
HIF-1α level: decrease in HIF-1α
Incubation time at which loss of HIF-1α occurred: 8 h
